Data taken from the supplement of paper PMC10849652.
Some of the results follow.

Sequences of proteins named here, by UniProt entry; tags and fusion partners are left off. A change or cut given only in a name is not applied to a line headed by its entry.
UniProt Q9UBC2: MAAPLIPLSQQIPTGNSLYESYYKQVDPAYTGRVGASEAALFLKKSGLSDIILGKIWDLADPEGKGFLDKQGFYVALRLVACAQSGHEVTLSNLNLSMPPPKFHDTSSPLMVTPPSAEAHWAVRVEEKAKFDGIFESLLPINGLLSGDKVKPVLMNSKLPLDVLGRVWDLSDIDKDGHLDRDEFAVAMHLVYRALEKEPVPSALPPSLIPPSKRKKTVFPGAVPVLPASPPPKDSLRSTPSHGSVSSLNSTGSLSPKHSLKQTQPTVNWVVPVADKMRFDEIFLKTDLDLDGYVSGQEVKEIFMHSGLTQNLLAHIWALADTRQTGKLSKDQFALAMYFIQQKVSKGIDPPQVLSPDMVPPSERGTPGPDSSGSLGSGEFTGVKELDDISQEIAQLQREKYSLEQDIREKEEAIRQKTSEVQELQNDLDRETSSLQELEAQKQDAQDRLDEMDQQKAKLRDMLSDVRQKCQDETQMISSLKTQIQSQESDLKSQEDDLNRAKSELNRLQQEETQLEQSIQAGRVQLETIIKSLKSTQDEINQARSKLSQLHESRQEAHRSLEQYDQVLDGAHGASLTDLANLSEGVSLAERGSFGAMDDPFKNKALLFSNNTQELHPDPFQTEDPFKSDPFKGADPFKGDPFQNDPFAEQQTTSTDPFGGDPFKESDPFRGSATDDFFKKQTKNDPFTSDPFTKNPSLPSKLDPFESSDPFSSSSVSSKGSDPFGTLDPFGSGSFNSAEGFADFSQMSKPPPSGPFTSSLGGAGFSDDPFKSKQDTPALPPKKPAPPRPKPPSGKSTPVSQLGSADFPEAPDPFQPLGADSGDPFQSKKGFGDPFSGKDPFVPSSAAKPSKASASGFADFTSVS
UniProt Q86YB8: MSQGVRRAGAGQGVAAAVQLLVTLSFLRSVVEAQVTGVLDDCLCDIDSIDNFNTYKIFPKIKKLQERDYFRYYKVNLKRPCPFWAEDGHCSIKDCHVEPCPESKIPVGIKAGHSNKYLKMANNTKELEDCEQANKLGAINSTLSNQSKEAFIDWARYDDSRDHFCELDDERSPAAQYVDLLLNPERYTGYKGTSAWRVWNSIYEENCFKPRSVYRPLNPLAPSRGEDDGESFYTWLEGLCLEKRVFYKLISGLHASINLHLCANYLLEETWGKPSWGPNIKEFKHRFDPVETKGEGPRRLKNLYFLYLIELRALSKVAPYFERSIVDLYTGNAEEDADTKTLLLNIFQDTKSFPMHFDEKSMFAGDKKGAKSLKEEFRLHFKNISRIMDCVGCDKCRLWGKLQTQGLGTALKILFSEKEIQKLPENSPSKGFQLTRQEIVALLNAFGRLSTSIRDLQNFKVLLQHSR
UniProt P42566: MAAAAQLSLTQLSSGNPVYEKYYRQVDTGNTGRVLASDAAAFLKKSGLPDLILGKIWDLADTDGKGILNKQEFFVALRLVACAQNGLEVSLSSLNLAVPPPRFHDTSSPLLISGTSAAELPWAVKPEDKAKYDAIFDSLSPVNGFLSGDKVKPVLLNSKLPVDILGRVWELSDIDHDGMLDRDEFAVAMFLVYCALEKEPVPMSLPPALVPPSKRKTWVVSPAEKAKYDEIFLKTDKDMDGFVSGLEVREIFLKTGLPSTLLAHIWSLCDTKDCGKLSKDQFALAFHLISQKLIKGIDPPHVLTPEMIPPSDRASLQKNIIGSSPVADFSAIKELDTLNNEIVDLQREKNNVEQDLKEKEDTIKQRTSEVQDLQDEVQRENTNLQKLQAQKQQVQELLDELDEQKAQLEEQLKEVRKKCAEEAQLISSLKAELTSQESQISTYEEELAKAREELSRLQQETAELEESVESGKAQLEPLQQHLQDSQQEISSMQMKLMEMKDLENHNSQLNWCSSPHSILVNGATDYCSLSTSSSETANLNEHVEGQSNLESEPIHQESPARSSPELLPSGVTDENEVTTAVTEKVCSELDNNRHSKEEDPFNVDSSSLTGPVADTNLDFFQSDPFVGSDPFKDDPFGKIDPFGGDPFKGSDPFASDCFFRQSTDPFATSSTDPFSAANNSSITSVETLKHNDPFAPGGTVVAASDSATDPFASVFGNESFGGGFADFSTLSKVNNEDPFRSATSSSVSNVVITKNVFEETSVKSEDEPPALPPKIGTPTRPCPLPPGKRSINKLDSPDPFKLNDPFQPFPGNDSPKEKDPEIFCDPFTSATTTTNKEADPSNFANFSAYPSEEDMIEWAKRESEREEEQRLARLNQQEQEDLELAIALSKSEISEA
UniProt O95208: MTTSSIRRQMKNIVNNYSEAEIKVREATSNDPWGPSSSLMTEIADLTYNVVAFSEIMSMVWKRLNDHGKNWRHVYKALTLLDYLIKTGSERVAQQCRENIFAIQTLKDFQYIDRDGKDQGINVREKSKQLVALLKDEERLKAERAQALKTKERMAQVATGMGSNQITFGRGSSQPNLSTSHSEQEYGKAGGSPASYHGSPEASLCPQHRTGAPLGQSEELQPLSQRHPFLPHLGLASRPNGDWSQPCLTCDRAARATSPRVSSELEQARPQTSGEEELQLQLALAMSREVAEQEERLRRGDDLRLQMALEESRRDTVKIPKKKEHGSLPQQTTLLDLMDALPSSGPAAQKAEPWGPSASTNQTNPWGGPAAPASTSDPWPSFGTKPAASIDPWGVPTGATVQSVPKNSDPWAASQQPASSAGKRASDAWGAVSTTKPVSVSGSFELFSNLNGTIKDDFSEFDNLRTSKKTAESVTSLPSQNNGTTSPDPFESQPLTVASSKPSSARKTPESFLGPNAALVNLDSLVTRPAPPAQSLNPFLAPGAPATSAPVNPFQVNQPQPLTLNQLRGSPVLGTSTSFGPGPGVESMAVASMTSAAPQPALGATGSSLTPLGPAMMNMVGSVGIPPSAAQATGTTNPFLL
UniProt Q9BS26: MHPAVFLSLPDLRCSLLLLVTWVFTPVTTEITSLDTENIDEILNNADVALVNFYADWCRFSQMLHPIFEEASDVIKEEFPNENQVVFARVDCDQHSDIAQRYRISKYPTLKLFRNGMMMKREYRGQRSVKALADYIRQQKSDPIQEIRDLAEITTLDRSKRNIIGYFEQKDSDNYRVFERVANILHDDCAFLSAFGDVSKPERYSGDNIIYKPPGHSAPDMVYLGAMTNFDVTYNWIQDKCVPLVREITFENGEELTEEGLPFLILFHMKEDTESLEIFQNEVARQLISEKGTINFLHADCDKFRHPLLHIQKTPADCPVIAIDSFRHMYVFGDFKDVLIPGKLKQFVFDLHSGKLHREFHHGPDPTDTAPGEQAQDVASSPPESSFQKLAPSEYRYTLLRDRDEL
UniProt Q9NZB2: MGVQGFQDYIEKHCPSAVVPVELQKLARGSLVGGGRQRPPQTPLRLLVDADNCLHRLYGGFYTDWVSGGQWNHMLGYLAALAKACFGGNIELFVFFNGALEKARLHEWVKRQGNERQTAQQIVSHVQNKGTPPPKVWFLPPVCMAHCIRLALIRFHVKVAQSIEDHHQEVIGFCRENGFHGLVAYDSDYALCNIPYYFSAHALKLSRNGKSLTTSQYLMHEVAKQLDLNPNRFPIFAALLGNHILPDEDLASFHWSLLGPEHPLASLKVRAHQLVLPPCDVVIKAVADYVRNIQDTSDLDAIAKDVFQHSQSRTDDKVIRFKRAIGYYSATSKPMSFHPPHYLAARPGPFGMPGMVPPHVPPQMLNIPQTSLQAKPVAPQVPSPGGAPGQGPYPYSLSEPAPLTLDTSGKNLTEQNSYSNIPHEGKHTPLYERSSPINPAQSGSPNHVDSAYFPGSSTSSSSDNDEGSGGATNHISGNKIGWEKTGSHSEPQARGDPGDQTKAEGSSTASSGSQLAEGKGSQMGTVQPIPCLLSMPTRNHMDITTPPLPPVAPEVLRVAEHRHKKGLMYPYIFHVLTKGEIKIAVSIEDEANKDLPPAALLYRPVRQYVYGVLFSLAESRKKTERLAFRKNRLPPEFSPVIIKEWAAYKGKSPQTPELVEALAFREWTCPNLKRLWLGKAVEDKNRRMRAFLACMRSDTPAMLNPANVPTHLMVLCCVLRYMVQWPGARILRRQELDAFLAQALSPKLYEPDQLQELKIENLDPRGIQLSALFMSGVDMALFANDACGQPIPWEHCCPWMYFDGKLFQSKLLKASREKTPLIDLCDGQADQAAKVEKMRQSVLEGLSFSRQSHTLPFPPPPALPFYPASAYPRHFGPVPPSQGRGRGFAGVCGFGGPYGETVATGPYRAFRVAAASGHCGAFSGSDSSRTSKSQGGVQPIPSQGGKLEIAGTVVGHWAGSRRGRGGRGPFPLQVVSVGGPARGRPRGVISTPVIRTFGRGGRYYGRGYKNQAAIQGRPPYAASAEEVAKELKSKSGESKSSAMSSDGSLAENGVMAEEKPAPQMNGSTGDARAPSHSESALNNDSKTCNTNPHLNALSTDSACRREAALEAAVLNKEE
UniProt Q93063: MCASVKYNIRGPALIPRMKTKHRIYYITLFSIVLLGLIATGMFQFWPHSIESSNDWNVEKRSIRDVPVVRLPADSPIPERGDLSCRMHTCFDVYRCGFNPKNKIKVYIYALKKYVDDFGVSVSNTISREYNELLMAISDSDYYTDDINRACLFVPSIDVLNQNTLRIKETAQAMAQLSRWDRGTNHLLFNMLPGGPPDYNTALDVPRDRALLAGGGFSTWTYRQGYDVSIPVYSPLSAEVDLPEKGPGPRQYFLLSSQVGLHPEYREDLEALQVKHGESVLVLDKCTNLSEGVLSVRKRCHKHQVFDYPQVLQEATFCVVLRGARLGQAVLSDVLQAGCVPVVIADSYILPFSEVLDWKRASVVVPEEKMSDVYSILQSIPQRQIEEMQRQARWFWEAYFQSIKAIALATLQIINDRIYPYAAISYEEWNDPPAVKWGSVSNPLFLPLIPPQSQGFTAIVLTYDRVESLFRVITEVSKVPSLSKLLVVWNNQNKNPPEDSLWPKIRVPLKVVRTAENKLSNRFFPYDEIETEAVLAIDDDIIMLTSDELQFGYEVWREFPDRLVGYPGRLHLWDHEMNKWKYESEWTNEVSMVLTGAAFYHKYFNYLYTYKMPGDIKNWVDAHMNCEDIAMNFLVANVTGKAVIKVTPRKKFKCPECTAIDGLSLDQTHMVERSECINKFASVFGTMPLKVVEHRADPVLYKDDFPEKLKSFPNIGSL
UniProt P11474: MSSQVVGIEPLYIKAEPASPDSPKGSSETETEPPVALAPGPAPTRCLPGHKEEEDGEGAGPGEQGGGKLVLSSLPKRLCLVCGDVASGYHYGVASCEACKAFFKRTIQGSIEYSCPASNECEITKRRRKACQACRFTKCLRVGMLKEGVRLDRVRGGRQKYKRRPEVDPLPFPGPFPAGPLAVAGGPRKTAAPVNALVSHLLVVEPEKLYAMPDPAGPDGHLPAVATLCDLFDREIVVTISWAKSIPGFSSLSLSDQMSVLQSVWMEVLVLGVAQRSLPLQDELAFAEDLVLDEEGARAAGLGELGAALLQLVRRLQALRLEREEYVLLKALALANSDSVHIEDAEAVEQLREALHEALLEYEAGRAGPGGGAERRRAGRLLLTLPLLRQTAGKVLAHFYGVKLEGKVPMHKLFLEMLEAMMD
UniProt P15311, whole entry, looked up: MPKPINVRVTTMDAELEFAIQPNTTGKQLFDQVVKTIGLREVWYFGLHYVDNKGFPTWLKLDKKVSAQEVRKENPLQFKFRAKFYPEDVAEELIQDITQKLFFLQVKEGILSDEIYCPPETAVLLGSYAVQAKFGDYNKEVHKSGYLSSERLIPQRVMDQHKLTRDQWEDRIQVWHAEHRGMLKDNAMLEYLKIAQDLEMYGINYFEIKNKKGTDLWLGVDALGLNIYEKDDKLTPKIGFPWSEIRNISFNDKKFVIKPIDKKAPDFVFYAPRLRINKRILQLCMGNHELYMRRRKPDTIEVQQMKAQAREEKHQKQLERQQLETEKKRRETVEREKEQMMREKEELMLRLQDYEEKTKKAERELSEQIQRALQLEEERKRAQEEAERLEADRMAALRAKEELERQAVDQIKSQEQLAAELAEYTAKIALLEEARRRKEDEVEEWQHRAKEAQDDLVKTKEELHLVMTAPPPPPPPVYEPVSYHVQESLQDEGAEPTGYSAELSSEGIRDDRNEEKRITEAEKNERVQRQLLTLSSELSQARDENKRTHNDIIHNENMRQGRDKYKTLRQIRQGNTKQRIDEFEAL
UniProt Q9NPD3, whole entry, looked up: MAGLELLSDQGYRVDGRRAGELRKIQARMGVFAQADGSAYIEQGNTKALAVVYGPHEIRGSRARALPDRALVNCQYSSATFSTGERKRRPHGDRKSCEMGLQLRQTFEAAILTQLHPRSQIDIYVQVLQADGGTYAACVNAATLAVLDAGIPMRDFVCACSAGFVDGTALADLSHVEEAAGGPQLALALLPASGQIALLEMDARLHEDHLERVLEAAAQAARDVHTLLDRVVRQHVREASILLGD

What was measured:
Test in all cases: log2 fold change, soluble protein after heating vs DMSO (PISA); higher = thermal stabilisation; K562 cells, 10 uM, 30 min; active = over 0.2 and 3.5 SD of the protein, either way, in both replicates (recomputed)
[1] = compound: CC[C@@H]1C(=O)N(C)c2cnc(Nc3ccc(C(=O)NC4CCN(C)CC4)cc3OC)nc2N1C1CCCC1
Summary of the method: (§1)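 Aliquots of K562 cells (2×10^6 cells/mL) treated with 10 μM compound for 30 min were heated for 3 min over 48°C-58°C. After pooling and extraction in PBS with 0.5% NP-40 at 4°C, soluble protein from a 21,000xg, 90 min spin was quantified by TMTpro 16plex LC-MS/MS with channel sums equalised. Thermal stability is expressed against control samples, from duplicates, as a log2 fold change.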

volasertib = compound: CC[C@@H]1C(=O)N(C)c2cnc(Nc3ccc(C(=O)N[C@H]4CC[C@H](N5CCN(CC6CC6)CC5)CC4)cc3OC)nc2N1C(C)C [volasertib]
Summary of the method: as §1

[2] = compound: CC[C@H](C)N1C=C(C2=C(C=C(C=C21)C3=CN=C(C=C3)N4CCNCC4)C(=O)NCC5=C(C=C(NC5=O)C)C)C
Summary of the method: as §1

epoxomicin = compound: CC[C@H](C)[C@@H](C(=O)N[C@@H]([C@@H](C)O)C(=O)N[C@@H](CC(C)C)C(=O)[C@]1(CO1)C)NC(=O)[C@H]([C@@H](C)CC)N(C)C(=O)C [epoxomicin]
Summary of the method: as §1

[3] = compound: CCn1c(C(=O)N(C2CC2)C2CC2)cc2c3c(ncn3C)c(Nc3cc(C)n(C)n3)nc21
Summary of the method: as §1

[4] = compound: CCn1cc(-c2ccnc3[nH]c(-c4cccc(CN(C)C)c4)cc23)c(-c2ccc(NC(=O)N(C)C)cc2)n1
Summary of the method: as §1

[5] = compound: CN(C)CC(=O)Nc1ccc2[nH]c(=O)c3ccccc3c2c1
Summary of the method: as §1

rosiglitazone = compound: CN(CCOC1=CC=C(C=C1)C[C@H]2C(=O)NC(=O)S2)C3=CC=CC=N3 (racemic) [rosiglitazone]
Summary of the method: as §1

[6] = compound: CN1C2=C(C3=C1C(=O)N(N=C3)CC4=CC(=CC=C4)N)SC(=C2)S(=O)C
Summary of the method: as §1

[7] = compound: CN1CCC(CNc2ccc3ncc(-c4cccc(OC(F)(F)F)c4)n3n2)CC1
Summary of the method: as §1

saracatinib = compound: CN1CCN(CCOc2cc(OC3CCOCC3)c3c(Nc4c(Cl)ccc5c4OCO5)ncnc3c2)CC1 [saracatinib]
Summary of the method: as §1

sotrastaurin = compound: CN1CCN(c2nc(C3=C(c4c[nH]c5ccccc45)C(=O)NC3=O)c3ccccc3n2)CC1 [sotrastaurin]
Summary of the method: as §1

alvocidib = compound: CN1CC[C@H](c2c(O)cc(O)c3c(=O)cc(-c4ccccc4Cl)oc23)[C@H](O)C1 [alvocidib]
Summary of the method: as §1

Tubastatin A = compound: CN1CCc2c(c3ccccc3n2Cc2ccc(C(=O)NO)cc2)C1 [Tubastatin A]
Summary of the method: as §1

[8] = compound: CNC(=O)C1=CC=CC=C1NC2=NC(=NC=C2Cl)NC3=C(C=C(C=C3)N4CCOCC4)OC
Summary of the method: as §1

defactinib = compound: CNC(=O)c1ccc(Nc2ncc(C(F)(F)F)c(NCc3nccnc3N(C)S(C)(=O)=O)n2)cc1 [defactinib]
Summary of the method: as §1

rucaparib = compound: CNCc1ccc(-c2[nH]c3cc(F)cc4c3c2CCNC4=O)cc1 [rucaparib]
Summary of the method: as §1

[9] = compound: CNc1nc(-c2ccc3c(N)n[nH]c3c2)cc(N2C[C@@H](C(=O)NC3CCCCC3)CC[C@H]2C)n1
Summary of the method: as §1

encorafenib = compound: COC(=O)N[C@@H](C)CNc1nccc(-c2cn(C(C)C)nc2-c2cc(Cl)cc(NS(C)(=O)=O)c2F)n1 [encorafenib]
Summary of the method: as §1

[10] = compound: COC(=O)[C@H](CCSC)NC(=O)C1=C(C=C(C=C1)NC[C@H](CS)N)C2=CC=CC=C2
Summary of the method: as §1

Measured: log2 fold change

ERCC4 (UniProt Q92889)
inactive: [1] 0.102 | volasertib -0.179 | [2] -0.264 | epoxomicin 0.004 | [3] -0.086 | [4] 0.014 | [5] -0.039 | rosiglitazone 0.138 | [6] -0.085 | [7] -0.027 | saracatinib -0.123 | sotrastaurin 0.191 | alvocidib 0.179 | Tubastatin A 0.086 | [8] -0.029 | defactinib 0.171 | rucaparib -0.276 | [9] -0.02 | encorafenib 0.006 | [10] -0.063

EPS15L1 isoform 2 (UniProt Q9UBC2)
inactive: [1] -0.111 | volasertib -0.175 | [2] 0.032 | epoxomicin 0.027 | [3] 0.007 | [4] 0.025 | [5] -0.024 | rosiglitazone 0.034 | [6] -0.012 | [7] -0.012 | saracatinib 0.023 | sotrastaurin -0.05 | alvocidib 0.05 | Tubastatin A 0.014 | [8] 0.085 | defactinib 0.003 | rucaparib -0.003 | [9] -0.114 | encorafenib 0.011 | [10] 0.019

ERO1B (UniProt Q86YB8)
inactive: [1] 0.197 | volasertib 0.051 | [2] 0.024 | epoxomicin 0.051 | [3] 0.003 | [5] -0.018 | rosiglitazone 0.105 | [6] 0.042 | saracatinib -0.053 | sotrastaurin 0.101 | alvocidib 0.045 | [8] -0.024 | defactinib -0.082 | rucaparib 0.117 | [9] -0.136 | encorafenib 0.17 | [10] 0.164

EPS15 (UniProt P42566)
inactive: [1] -0.062 | volasertib -0.214 | [2] 0.046 | epoxomicin 0.031 | [3] -0.004 | [4] -0.062 | [5] 0.004 | rosiglitazone 0.037 | [6] 0.016 | [7] -0.02 | saracatinib 0.041 | sotrastaurin -0.032 | alvocidib 0.03 | Tubastatin A -0.002 | [8] 0.075 | defactinib -0.009 | rucaparib 0.003 | [9] -0.072 | encorafenib 0.053 | [10] -0.011

2 neighbouring entries already listed, quoted:
EPS15L1 isoform 2 (UniProt Q9UBC2)
inactive: [1] -0.111 | volasertib -0.175 | [2] 0.032 | epoxomicin 0.027 | [3] 0.007 | [4] 0.025 | [5] -0.024 | rosiglitazone 0.034 | [6] -0.012 | [7] -0.012 | saracatinib 0.023 | sotrastaurin -0.05 | alvocidib 0.05 | Tubastatin A 0.014 | [8] 0.085 | defactinib 0.003 | rucaparib -0.003 | [9] -0.114 | encorafenib 0.011 | [10] 0.019

ERO1B (UniProt Q86YB8)
inactive: [1] 0.197 | volasertib 0.051 | [2] 0.024 | epoxomicin 0.051 | [3] 0.003 | [5] -0.018 | rosiglitazone 0.105 | [6] 0.042 | saracatinib -0.053 | sotrastaurin 0.101 | alvocidib 0.045 | [8] -0.024 | defactinib -0.082 | rucaparib 0.117 | [9] -0.136 | encorafenib 0.17 | [10] 0.164

Following part:

ETHE1 (UniProt O95571)
inactive: [1] 0.03 | volasertib 0.029 | [2] -0.047 | epoxomicin 0.025 | [3] -0.005 | [4] 0.001 | [5] 0.024 | rosiglitazone 0.087 | [6] -0.027 | [7] -0.046 | saracatinib 0.018 | sotrastaurin 0.033 | alvocidib -0.037 | Tubastatin A -0.007 | [8] -0.042 | defactinib -0.015 | rucaparib -0.026 | [9] -0.058 | encorafenib -0.043 | [10] 0

EXOSC9 isoform 2 (UniProt Q06265)
inactive: [1] 0.071 | volasertib 0.074 | [2] -0.064 | epoxomicin -0.016 | [3] 0.018 | [4] 0.031 | [5] -0.032 | rosiglitazone -0.006 | [6] 0.005 | [7] 0.027 | saracatinib 0.055 | sotrastaurin 0.085 | alvocidib 0.039 | Tubastatin A -0.006 | [8] 0.017 | defactinib 0.044 | rucaparib 0.045 | [9] -0.026 | encorafenib -0.007 | [10] 0.02

EPN2 (UniProt O95208)
inactive: [1] -0.14 | volasertib -0.041 | [2] -0.053 | epoxomicin 0.047 | [3] -0.002 | [4] 0.044 | [5] 0.011 | rosiglitazone -0.096 | [6] -0.052 | [7] -0.167 | saracatinib 0.078 | sotrastaurin 0.007 | alvocidib 0.042 | Tubastatin A 0.006 | [8] 0.026 | defactinib -0.045 | rucaparib -0.015 | [9] -0.005 | encorafenib 0.041 | [10] -0.009

EPB41L2 (UniProt O43491)
inactive: [1] -0.016 | volasertib 0.002 | [2] 0.023 | epoxomicin 0.014 | [3] 0.018 | [4] 0.001 | [5] -0.014 | rosiglitazone 0.008 | [6] -0.053 | [7] -0.074 | saracatinib -0.015 | sotrastaurin 0.056 | alvocidib -0.06 | Tubastatin A 0.021 | [8] -0.025 | defactinib -0.077 | rucaparib -0.009 | [9] 0.079 | encorafenib 0.012 | [10] 0.015

ERP44 (UniProt Q9BS26)
inactive: [1] -0.018 | volasertib -0.005 | [2] 0.006 | epoxomicin 0.045 | [3] 0.003 | [4] -0.006 | [5] -0.037 | rosiglitazone -0.012 | [6] -0.004 | [7] 0.122 | saracatinib -0.04 | sotrastaurin 0.011 | alvocidib -0.009 | Tubastatin A 0.005 | [8] 0.066 | defactinib 0.002 | rucaparib 0.01 | [9] -0.022 | encorafenib -0.012 | [10] 0.007

ERAL1 (UniProt O75616)
inactive: [1] 0.212 | volasertib 0.242 | [2] -0.086 | epoxomicin 0.116 | [3] -0.042 | [5] 0.292 | rosiglitazone 0.027 | [6] 0.162 | saracatinib 0.129 | sotrastaurin -0.02 | alvocidib -0.035 | [8] 0.009 | defactinib -0.149 | rucaparib 0.216 | [9] -0.032 | encorafenib 0.115 | [10] 0.125

FAM120A isoform 6 (UniProt Q9NZB2)
inactive: [1] 0.204 | volasertib 0.294 | [2] -0.032 | epoxomicin -0.206 | [3] 0.018 | [4] 0.068 | [5] -0.108 | rosiglitazone -0.101 | [6] 0.114 | [7] 0.164 | saracatinib 0.037 | sotrastaurin 0.018 | alvocidib 0.281 | Tubastatin A 0.043 | [8] 0.022 | defactinib 0.267 | rucaparib 0.181 | [9] 0.009 | encorafenib 0.042 | [10] 0.048

EXT2 isoform 3 (UniProt Q93063)
inactive: [1] 0.041 | volasertib 0.005 | [2] -0.046 | epoxomicin -0.015 | [3] 0.021 | [4] 0.026 | [5] -0.016 | rosiglitazone 0.002 | [6] 0.026 | [7] 0.069 | saracatinib -0.069 | sotrastaurin -0.016 | alvocidib 0.042 | Tubastatin A 0.111 | [8] 0.047 | defactinib 0.025 | rucaparib 0.057 | [9] -0.02 | encorafenib 0.064 | [10] -0.086

ESRRA (UniProt P11474)
inactive: [1] 0.11 | volasertib -0.26 | [2] -0.123 | epoxomicin 0.147 | [3] 0.021 | [4] 0.044 | [5] -0.122 | [6] 0.04 | [7] -0.063 | saracatinib 0.062 | sotrastaurin -0.005 | alvocidib -0.025 | Tubastatin A -0.056 | [8] 0.044 | defactinib -0.06 | rucaparib -0.012 | [9] -0.063 | encorafenib -0.027 | [10] 0.025

FAF1 (UniProt Q9UNN5)
inactive: [1] -0.017 | volasertib -0.069 | [2] 0.02 | epoxomicin 0.038 | [3] 0.028 | [4] -0.031 | [5] -0.026 | rosiglitazone -0.003 | [6] -0.037 | [7] 0.001 | saracatinib 0.057 | sotrastaurin -0.017 | alvocidib -0.073 | Tubastatin A -0.04 | [8] 0.003 | defactinib -0.05 | rucaparib -0.044 | [9] -0.038 | encorafenib 0.02 | [10] 0.015

EZR (UniProt P15311)
inactive: [1] 0.01 | volasertib 0.021 | [2] 0.012 | epoxomicin 0 | [3] 0.003 | [4] -0.049 | [5] -0.015 | rosiglitazone 0.012 | [6] -0.085 | [7] 0.112 | saracatinib 0.035 | sotrastaurin 0.043 | alvocidib -0.04 | Tubastatin A -0.033 | [8] 0.036 | defactinib 0.007 | rucaparib -0.03 | [9] -0.02 | encorafenib -0.037 | [10] 0.005

EXOSC4 (UniProt Q9NPD3)
inactive: [1] 0.057 | volasertib -0.01 | [2] -0.068 | epoxomicin 0.023 | [3] 0.022 | [4] 0.047 | [5] 0.002 | rosiglitazone -0.053 | [6] -0.032 | [7] 0.132 | saracatinib 0.088 | sotrastaurin 0 | alvocidib -0.002 | Tubastatin A -0.095 | [8] -0.005 | defactinib -0.004 | rucaparib 0.012 | [9] -0.012 | encorafenib 0.004 | [10] 0.059
